Results taken from the supplement of paper PMC12823440, “Inhibitors supercharge kinase turnover through native proteolytic circuits” (Nature, 2025).
Some of the results follow. Hit calls seldom repeat between salt and free forms of one compound.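 Kinases, fused to nanoluciferase, were expressed in K562 cells; luminescence was measured every 4 h from 2 to 18 h as percent of control (DMSO = 100%, positive control = 0%). A time point is decreased if signal falls significantly (2 sigma). Hits were called by the authors by a rule that is not shown; the count of time points alone does not decide it.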

Amino acid sequences for entries named in this document (tags omitted). A change or cut given only in a name is not applied to a line headed by its entry.
UniProt Q9Y616: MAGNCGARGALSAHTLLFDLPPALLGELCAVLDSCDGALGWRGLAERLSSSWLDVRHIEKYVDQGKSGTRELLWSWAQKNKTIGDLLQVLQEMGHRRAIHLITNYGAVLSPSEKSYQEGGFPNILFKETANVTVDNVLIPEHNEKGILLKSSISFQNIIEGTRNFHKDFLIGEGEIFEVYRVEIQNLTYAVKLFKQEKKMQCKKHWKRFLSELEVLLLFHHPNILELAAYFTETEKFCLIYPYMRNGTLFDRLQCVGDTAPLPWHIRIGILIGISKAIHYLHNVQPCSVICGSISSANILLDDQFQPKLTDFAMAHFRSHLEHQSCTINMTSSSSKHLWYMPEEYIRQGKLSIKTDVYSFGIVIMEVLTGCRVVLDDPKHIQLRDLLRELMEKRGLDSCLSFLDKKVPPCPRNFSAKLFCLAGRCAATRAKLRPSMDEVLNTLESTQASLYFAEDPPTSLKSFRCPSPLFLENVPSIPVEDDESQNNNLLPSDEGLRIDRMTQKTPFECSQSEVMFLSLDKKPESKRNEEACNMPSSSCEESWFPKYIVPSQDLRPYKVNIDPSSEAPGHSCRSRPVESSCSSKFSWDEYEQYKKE
UniProt P23458: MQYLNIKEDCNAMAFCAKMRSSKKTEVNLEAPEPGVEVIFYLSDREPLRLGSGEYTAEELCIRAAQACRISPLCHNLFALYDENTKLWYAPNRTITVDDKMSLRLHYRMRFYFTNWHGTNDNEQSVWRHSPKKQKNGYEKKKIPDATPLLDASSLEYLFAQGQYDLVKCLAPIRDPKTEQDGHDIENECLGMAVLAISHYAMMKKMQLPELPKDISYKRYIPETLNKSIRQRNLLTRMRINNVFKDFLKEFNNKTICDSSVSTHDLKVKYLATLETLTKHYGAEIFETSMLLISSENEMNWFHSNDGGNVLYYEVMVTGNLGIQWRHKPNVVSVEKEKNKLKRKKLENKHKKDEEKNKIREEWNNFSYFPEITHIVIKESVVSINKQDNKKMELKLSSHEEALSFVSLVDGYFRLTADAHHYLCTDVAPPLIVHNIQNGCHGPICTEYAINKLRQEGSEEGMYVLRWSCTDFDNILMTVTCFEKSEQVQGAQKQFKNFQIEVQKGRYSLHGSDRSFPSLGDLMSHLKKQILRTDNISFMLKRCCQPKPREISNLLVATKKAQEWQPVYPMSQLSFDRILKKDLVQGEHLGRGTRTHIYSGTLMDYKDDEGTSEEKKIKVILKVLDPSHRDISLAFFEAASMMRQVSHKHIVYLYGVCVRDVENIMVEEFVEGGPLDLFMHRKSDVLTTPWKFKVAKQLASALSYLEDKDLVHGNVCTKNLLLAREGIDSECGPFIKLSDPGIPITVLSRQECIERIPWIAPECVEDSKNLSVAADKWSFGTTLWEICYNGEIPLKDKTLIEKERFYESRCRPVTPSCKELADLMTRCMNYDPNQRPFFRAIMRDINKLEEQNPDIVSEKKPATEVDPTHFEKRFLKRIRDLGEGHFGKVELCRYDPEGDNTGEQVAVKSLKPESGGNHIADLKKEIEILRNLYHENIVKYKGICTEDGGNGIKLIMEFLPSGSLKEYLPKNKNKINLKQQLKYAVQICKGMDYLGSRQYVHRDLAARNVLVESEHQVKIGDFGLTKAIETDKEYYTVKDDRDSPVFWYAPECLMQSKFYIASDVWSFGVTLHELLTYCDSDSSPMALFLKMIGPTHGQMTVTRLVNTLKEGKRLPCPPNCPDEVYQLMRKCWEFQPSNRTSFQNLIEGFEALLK
UniProt P06239: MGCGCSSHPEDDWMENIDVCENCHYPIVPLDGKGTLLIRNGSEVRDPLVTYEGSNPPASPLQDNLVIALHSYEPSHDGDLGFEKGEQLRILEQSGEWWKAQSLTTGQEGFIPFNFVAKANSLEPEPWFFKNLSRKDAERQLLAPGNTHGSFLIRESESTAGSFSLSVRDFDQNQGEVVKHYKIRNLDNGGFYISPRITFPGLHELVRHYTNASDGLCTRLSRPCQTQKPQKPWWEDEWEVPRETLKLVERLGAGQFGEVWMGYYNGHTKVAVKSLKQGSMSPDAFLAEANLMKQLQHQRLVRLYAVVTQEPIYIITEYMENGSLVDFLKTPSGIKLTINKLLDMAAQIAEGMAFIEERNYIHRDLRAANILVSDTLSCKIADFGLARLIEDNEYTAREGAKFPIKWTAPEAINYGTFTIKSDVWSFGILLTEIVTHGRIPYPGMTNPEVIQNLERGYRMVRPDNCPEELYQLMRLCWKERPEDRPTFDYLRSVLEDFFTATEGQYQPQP
UniProt P53667: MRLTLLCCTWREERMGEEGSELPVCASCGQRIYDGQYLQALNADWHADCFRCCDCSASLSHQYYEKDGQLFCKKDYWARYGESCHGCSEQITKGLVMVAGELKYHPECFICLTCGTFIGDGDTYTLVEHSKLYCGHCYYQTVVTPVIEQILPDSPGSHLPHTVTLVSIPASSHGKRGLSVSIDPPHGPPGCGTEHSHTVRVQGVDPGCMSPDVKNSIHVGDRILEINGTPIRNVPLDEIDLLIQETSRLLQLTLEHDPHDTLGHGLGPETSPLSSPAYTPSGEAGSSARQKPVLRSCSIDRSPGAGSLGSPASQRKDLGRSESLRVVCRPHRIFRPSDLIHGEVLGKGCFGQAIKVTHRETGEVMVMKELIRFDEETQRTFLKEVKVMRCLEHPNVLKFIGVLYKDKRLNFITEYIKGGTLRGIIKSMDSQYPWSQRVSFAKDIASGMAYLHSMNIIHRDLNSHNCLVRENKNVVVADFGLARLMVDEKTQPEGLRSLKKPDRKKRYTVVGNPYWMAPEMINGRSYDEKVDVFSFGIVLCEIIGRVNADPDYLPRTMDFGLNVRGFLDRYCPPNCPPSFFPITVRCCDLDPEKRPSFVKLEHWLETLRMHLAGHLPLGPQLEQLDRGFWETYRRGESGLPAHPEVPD
UniProt P53671: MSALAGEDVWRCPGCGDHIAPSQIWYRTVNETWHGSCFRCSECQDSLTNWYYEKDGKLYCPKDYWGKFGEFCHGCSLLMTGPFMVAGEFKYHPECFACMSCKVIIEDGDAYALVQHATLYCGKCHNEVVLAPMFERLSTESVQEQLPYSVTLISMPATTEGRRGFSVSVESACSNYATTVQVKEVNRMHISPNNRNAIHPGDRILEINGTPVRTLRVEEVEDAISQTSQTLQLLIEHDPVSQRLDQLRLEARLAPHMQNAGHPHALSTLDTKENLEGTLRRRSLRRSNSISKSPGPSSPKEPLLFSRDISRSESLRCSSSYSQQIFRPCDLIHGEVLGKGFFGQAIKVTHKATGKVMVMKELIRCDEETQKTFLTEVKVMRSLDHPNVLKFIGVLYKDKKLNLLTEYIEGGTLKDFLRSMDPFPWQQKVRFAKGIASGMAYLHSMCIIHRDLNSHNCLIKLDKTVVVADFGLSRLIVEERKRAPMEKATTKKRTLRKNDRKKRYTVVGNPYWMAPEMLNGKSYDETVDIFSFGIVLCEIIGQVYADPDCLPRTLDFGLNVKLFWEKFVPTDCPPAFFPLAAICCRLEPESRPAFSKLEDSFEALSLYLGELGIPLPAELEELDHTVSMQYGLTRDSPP
UniProt Q8IWU2: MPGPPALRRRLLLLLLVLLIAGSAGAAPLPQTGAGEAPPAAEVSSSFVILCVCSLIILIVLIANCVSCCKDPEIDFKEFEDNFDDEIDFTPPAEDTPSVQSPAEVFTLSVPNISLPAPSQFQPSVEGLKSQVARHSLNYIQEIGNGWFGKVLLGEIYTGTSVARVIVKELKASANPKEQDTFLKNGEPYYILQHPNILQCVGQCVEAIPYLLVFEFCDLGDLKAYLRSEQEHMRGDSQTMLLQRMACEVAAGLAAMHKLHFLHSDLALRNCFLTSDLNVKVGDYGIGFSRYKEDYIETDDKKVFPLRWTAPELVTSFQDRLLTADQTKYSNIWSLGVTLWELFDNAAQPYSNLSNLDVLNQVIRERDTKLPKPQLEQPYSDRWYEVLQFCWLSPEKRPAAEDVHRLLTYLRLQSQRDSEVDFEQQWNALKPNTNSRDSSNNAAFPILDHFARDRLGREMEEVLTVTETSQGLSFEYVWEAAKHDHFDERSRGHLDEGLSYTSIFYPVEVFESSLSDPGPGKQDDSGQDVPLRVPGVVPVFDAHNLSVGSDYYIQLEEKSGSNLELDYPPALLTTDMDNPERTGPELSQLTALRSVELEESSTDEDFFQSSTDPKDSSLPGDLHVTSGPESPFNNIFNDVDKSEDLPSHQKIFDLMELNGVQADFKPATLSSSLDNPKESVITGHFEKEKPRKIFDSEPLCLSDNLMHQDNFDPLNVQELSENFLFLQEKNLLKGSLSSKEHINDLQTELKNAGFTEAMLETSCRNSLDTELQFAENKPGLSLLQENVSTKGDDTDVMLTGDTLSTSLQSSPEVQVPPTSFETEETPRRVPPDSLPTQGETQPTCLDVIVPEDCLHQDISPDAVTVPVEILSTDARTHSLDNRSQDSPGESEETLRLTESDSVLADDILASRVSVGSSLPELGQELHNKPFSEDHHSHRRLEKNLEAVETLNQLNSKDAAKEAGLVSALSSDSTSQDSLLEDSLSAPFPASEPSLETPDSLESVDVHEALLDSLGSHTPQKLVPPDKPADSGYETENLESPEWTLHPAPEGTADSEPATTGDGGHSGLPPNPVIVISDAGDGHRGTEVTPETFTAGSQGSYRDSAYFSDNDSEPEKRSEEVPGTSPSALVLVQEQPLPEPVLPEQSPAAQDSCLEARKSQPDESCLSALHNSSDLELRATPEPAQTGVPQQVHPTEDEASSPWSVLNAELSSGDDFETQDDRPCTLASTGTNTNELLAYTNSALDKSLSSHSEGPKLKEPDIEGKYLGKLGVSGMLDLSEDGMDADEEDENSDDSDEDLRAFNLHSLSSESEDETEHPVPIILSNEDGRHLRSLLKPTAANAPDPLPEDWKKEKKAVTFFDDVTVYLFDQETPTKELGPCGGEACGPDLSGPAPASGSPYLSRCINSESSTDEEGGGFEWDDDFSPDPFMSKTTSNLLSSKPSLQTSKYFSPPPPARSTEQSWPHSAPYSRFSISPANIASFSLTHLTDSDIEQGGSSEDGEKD
UniProt P07948: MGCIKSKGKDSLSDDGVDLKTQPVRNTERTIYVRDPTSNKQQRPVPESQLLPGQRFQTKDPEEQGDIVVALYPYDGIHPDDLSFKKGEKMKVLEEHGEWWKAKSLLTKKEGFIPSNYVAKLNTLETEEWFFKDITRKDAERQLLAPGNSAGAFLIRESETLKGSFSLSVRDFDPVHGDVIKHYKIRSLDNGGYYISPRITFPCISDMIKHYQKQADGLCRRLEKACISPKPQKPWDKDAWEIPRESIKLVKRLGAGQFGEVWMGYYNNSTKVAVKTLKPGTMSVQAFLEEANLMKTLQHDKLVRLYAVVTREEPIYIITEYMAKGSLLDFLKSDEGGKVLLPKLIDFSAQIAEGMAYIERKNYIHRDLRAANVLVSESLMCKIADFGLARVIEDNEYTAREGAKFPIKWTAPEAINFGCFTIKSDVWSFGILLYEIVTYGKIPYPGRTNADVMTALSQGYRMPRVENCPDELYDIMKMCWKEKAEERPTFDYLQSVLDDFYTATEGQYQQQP
UniProt Q12851: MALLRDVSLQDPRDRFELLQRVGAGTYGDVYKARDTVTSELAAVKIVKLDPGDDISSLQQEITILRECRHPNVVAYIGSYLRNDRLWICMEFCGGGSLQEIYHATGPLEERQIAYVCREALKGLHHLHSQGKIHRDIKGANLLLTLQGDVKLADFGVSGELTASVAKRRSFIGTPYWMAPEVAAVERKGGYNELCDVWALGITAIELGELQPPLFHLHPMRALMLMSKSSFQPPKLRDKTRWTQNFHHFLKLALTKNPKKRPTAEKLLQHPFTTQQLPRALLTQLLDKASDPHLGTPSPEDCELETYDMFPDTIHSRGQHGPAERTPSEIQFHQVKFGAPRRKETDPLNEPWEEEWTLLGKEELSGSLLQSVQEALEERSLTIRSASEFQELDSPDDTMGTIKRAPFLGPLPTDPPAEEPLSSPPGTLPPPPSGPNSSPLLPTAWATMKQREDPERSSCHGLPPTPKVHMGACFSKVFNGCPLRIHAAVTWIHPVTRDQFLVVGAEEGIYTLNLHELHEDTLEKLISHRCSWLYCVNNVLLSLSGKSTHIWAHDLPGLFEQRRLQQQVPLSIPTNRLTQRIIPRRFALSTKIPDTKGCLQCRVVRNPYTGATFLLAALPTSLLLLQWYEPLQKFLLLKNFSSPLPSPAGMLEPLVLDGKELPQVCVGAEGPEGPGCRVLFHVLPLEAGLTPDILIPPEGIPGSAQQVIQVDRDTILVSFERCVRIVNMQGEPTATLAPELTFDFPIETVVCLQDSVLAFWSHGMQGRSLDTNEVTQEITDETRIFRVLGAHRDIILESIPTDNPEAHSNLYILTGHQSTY

Tests used:
Experiment in all cases: kinase-Nluc reporter destabilization hit call (1 = scored as downregulated) (binary); higher = compound decreases kinase abundance
Conditions in all cases: K562; 2-18 h
[1] = target: IRAK3 (UniProt Q9Y616)
[2] = target: JAK1 (UniProt P23458)
[3] = target: LCK (UniProt P06239)
[4] = target: LIMK1 (UniProt P53667)
[5] = target: LIMK2 (UniProt P53671)
[6] = target: LMTK2 (UniProt Q8IWU2)
[7] = target: LYN (UniProt P07948)
[8] = target: MAP2K1 (UniProt Q02750)
[9] = target: MAP2K2 (UniProt P36507)
[10] = target: MAP4K2 (UniProt Q12851)

Measured: kinase-Nluc reporter destabilization hit call

COc1cc(N2CCC(N3CCN(C)CC3)CC2)ccc1Nc1nc2c(c(Nc3ccccc3S(=O)(=O)NC(C)C)n1)CCN2 [Conteltinib] (10 µM)
inactive: [1] 0 | [2] 0 | [3] 0 | [4] 0 | [5] 0 | [6] 0 | [7] 0 | [8] 0 | [9] 0 | [10] 0

CC(C)n1cnc2c(Nc3cccc(Cl)c3)nc(NCCO)nc21 (10 µM)
inactive: [1] 0 | [2] 0 | [3] 0 | [4] 0 | [5] 0 | [6] 0 | [7] 0 | [8] 0 | [9] 0 | [10] 0

O=c1[nH]ccc2cc(OC3CCNCC3)ccc12 (10 µM)
inactive: [1] 0 | [2] 0 | [3] 0 | [4] 0 | [5] 0 | [6] 0 | [7] 0 | [8] 0 | [9] 0 | [10] 0

O=C(O)CCc1ccc(NCc2cccc(Oc3ccccc3)c2)cc1 (10 µM)
inactive: [1] 0 | [2] 0 | [3] 0 | [4] 0 | [5] 0 | [6] 0 | [7] 0 | [8] 0 | [9] 0 | [10] 0

OCCN(CCO)c1ccc(C(c2ccc(Cl)cc2)c2ccc(N(CCO)CCO)cc2)cc1 (10 µM)
inactive: [1] 0 | [2] 0 | [3] 0 | [4] 0 | [5] 0 | [6] 0 | [7] 0 | [8] 0 | [9] 0 | [10] 0

CN(C)c1ncnc2nc[nH]c12 [6-(Dimethylamino)purine] (10 µM)
inactive: [1] 0 | [2] 0 | [3] 0 | [4] 0 | [5] 0 | [6] 0 | [7] 0 | [8] 0 | [9] 0 | [10] 0

Cc1nc(NC(=O)NCCc2nnn(CCF)n2)sc1-c1ccc(S(C)(=O)=O)c(F)c1 (10 µM)
inactive: [1] 0 | [2] 0 | [3] 0 | [4] 0 | [5] 0 | [6] 0 | [7] 0 | [8] 0 | [9] 0 | [10] 0

Nc1n[nH]c2cc(-c3ccc(=O)n(Cc4cccc(Cl)c4)c3)ccc12 (10 µM)
inactive: [1] 0 | [2] 0 | [3] 0 | [4] 0 | [5] 0 | [6] 0 | [7] 0 | [8] 0 | [9] 0 | [10] 0

CC(C)c1cnn2c(NCc3ccccc3-n3cccn3)nc(OC3CCCNC3)nc12 (stereo not given) (2.5 µM)
inactive: [1] 0 | [2] 0 | [3] 0 | [4] 0 | [5] 0 | [6] 0 | [7] 0 | [8] 0 | [9] 0 | [10] 0

CC(=O)Nc1nc(C)c(-c2nc(N3CCCC(O)C3)no2)s1 (stereo not given) (10 µM)
inactive: [1] 0 | [2] 0 | [3] 0 | [4] 0 | [5] 0 | [6] 0 | [7] 0 | [8] 0 | [9] 0 | [10] 0

Nc1cccc(S(=O)(=O)N2CCCN(S(=O)(=O)c3ccc4c(c3)OCCO4)CC2)c1 (10 µM)
inactive: [1] 0 | [2] 0 | [3] 0 | [4] 0 | [5] 0 | [6] 0 | [7] 0 | [8] 0 | [9] 0 | [10] 0

COc1cnccc1Nc1nc(-c2nn(Cc3c(F)cc(OCCO)cc3F)c3ccccc23)ncc1OC (10 µM)
inactive: [1] 0 | [2] 0 | [3] 0 | [4] 0 | [5] 0 | [6] 0 | [7] 0 | [8] 0 | [9] 0 | [10] 0

O=C(O)c1ccc(N2N=C(Cc3ccccc3)C(=Cc3ccc(-c4ccccc4F)o3)C2=O)cc1 (10 µM)
inactive: [1] 0 | [2] 0 | [3] 0 | [4] 0 | [5] 0 | [6] 0 | [7] 0 | [8] 0 | [9] 0 | [10] 0

Nc1[nH]c(=O)nc2c1ncn2[C@@H]1O[C@H](CO)[C@@H](O)[C@H]1O [Crotonoside] (10 µM)
inactive: [1] 0 | [2] 0 | [3] 0 | [4] 0 | [5] 0 | [6] 0 | [7] 0 | [8] 0 | [9] 0 | [10] 0

C[C@@H]1COCCN1c1cc(=O)n2c(n1)N(Cc1cncc(Cl)c1)[C@H](C(F)(F)F)CC2 (10 µM)
inactive: [1] 0 | [2] 0 | [3] 0 | [4] 0 | [5] 0 | [6] 0 | [7] 0 | [8] 0 | [9] 0 | [10] 0

C[C@@H]1CCc2ncc(F)cc2[C@H]2CCCN2c2ccn3ncc(c3n2)C(=O)N1 [Selitrectinib] (10 µM)
inactive: [1] 0 | [2] 0 | [3] 0 | [4] 0 | [5] 0 | [6] 0 | [7] 0 | [8] 0 | [9] 0 | [10] 0

COc1ncc(Nc2ncc([C@@H](C)N3CCN(S(C)(=O)=O)CC3)cc2-c2nc(C)nc(N)n2)cc1F (10 µM)
inactive: [1] 0 | [2] 0 | [3] 0 | [4] 0 | [5] 0 | [6] 0 | [7] 0 | [8] 0 | [9] 0 | [10] 0

C[C@@H]1O[C@@H](OC[C@H]2O[C@@H](Oc3cc(O)c4c(c3)O[C@H](c3ccc(O)cc3)CC4=O)[C@H](O)[C@@H](O)[C@@H]2O)[C@H](O)[C@H](O)[C@H]1O [Narirutin] (10 µM)
inactive: [1] 0 | [2] 0 | [3] 0 | [4] 0 | [5] 0 | [6] 0 | [7] 0 | [8] 0 | [9] 0 | [10] 0

COc1nc(-c2ccnc(NC(=O)C3CC3)c2)sc1C(N)=O [GSK-3β inhibitor 2] (10 µM)
inactive: [1] 0 | [2] 0 | [3] 0 | [4] 0 | [5] 0 | [6] 0 | [7] 0 | [8] 0 | [9] 0 | [10] 0

O=c1ccoc2cc(O)ccc12 [7-Hydroxy-4H-chromen-4-one] (10 µM)
inactive: [1] 0 | [2] 0 | [3] 0 | [4] 0 | [5] 0 | [6] 0 | [7] 0 | [8] 0 | [9] 0 | [10] 0

CCn1nc(C2CCN(C(=O)CCO)CC2)nc1-c1cnc(N)c(-c2nnc(C(C)(C)C)o2)n1 (10 µM)
inactive: [1] 0 | [2] 0 | [3] 0 | [4] 0 | [5] 0 | [6] 0 | [7] 0 | [8] 0 | [9] 0 | [10] 0

CC(C)Oc1ccc(-c2cnc3c(-c4ccnc5ccccc45)cnn3c2)cc1 (10 µM)
inactive: [1] 0 | [2] 0 | [3] 0 | [4] 0 | [5] 0 | [6] 0 | [7] 0 | [8] 0 | [9] 0 | [10] 0

Cc1cc(Nc2cc(CN3CCOCC3)c3nc(C)c(Cc4ccc(Cl)cc4F)n3n2)n[nH]1 [Gandotinib] (2.5 µM)
inactive: [1] 0 | [2] 0 | [3] 0 | [4] 0 | [5] 0 | [6] 0 | [7] 0 | [8] 0 | [9] 0 | [10] 0

COC1(C(=O)N[C@@H](C)c2ccc(-n3cc(F)cn3)nc2)CCC(c2nc(C)cc(Nc3cc(C)[nH]n3)n2)CC1 (stereo partly drawn) [trans-Pralsetinib] (2.5 µM)
inactive: [1] 0 | [2] 0 | [3] 0 | [4] 0 | [5] 0 | [6] 0 | [7] 0 | [8] 0 | [9] 0 | [10] 0

C[C@H]1Cc2ccccc2N1C(=O)Cc1nc(N2CCOCC2)cc(=O)[nH]1 (2.5 µM)
inactive: [1] 0 | [2] 0 | [3] 0 | [4] 0 | [5] 0 | [6] 0 | [7] 0 | [8] 0 | [9] 0 | [10] 0

C=CC(=O)Nc1cccc(Oc2nc(Nc3ccc(N4CCN(C)CC4)cc3)nc3ccoc23)c1 [Poseltinib] (10 µM)
inactive: [1] 0 | [2] 0 | [3] 0 | [4] 0 | [5] 0 | [6] 0 | [7] 0 | [8] 0 | [9] 0 | [10] 0

O=C(Nc1cccc(-c2nncn2C2CC2)c1)c1cc(-n2cnc(C3CC3)c2)ccn1 (10 µM)
inactive: [1] 0 | [2] 0 | [3] 0 | [4] 0 | [5] 0 | [6] 0 | [7] 0 | [8] 0 | [9] 0 | [10] 0

2 entries picked at random from those above, as already listed:
C=CC(=O)Nc1cccc(Oc2nc(Nc3ccc(N4CCN(C)CC4)cc3)nc3ccoc23)c1 [Poseltinib] (10 µM)
inactive: [1] 0 | [2] 0 | [3] 0 | [4] 0 | [5] 0 | [6] 0 | [7] 0 | [8] 0 | [9] 0 | [10] 0

CCn1nc(C2CCN(C(=O)CCO)CC2)nc1-c1cnc(N)c(-c2nnc(C(C)(C)C)o2)n1 (10 µM)
inactive: [1] 0 | [2] 0 | [3] 0 | [4] 0 | [5] 0 | [6] 0 | [7] 0 | [8] 0 | [9] 0 | [10] 0

Going on with the list.

COc1ccc(CNc2nc(N(CCO)CCO)nc3c2ncn3C(C)C)cc1 (2.5 µM)
inactive: [1] 0 | [2] 0 | [3] 0 | [4] 0 | [5] 0 | [6] 0 | [7] 0 | [8] 0 | [9] 0 | [10] 0

c1ccc(-c2oc3ncnc(NC[C@@H]4CCCO4)c3c2-c2ccccc2)cc1 (2.5 µM)
inactive: [1] 0 | [2] 0 | [3] 0 | [4] 0 | [5] 0 | [6] 0 | [7] 0 | [8] 0 | [9] 0 | [10] 0
